From paper PMC3065546 (Pain, 2011)

The chains behind the UniProt entries cited, without tags or fusion partners. Where a name states a change or a piece, a line headed by the entry shows the natural chain unless it says otherwise.
UniProt P41145: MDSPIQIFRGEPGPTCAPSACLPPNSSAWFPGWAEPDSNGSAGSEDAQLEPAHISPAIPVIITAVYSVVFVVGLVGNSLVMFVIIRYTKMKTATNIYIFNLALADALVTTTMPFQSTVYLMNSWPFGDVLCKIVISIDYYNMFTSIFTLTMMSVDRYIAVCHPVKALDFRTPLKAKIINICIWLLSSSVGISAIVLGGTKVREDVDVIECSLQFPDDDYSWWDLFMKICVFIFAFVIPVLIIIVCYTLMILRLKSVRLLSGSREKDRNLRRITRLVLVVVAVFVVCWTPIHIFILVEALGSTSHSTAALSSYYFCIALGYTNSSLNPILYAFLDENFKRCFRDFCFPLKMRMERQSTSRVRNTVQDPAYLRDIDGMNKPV
UniProt P33261, whole entry: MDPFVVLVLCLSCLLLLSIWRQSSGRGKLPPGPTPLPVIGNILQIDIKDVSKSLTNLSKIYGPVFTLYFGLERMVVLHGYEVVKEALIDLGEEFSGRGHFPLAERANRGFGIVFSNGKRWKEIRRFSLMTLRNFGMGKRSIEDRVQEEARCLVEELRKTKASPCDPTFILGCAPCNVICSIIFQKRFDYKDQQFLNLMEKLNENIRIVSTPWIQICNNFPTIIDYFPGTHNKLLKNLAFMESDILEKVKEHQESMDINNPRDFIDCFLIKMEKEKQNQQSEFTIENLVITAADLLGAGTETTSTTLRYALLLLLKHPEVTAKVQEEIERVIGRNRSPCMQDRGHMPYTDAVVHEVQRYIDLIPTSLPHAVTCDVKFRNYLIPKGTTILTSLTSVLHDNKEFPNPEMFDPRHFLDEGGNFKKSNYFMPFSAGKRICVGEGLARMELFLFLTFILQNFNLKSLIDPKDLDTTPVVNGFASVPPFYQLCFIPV

What was measured:
human δ opioid receptor = human δ opioid receptor (Homo sapiens, UniProt P41143); experiment: Opioid receptor binding, [3H]naltrindole, CHO cell membranes
human κ opioid receptor = human κ opioid receptor (Homo sapiens, UniProt P41145); experiment: Opioid receptor binding, [3H]U69,593, CHO cell membranes
nociceptive thresholds = type: in vivo, rat; settings: large icv doses (250-500 nmol), 7 – 11 min after administration, TF and HP
[1] = molecular target: cDNA-expressed human CYP2C19 (Homo sapiens, UniProt P33261); experiment: biochemical

Clc1ccc(CSC(Cn2ccnc2)c2ccc(Cl)cc2Cl)cc1 (stereo not shown) [Sulconazole, sulconazole]
Ki (human δ opioid receptor): 690 ± 44 nM | Ki (human κ opioid receptor): 960 ± 51 nM | Antinociception of inhibitor alone (nociceptive thresholds): notable antinociception | Ki [1]: 31 nM
